Results are given in words; binding and its absence hold for the method and conditions named. Some binding calls cover weakened binding; strength is not graded here.
Biological target: T1, recombinant c-Met antigen (human, UniProt P08581 25-932, limits assumed)
T1 construct: also called immobilized Met antigen; human Met antigen
Assay: monoclonal phage ELISA and sequencing of positive clones

Chains of the proteins cited; added tags and fusions are not shown. Residues count along the entry.
UniProt P08581, residues 25-932: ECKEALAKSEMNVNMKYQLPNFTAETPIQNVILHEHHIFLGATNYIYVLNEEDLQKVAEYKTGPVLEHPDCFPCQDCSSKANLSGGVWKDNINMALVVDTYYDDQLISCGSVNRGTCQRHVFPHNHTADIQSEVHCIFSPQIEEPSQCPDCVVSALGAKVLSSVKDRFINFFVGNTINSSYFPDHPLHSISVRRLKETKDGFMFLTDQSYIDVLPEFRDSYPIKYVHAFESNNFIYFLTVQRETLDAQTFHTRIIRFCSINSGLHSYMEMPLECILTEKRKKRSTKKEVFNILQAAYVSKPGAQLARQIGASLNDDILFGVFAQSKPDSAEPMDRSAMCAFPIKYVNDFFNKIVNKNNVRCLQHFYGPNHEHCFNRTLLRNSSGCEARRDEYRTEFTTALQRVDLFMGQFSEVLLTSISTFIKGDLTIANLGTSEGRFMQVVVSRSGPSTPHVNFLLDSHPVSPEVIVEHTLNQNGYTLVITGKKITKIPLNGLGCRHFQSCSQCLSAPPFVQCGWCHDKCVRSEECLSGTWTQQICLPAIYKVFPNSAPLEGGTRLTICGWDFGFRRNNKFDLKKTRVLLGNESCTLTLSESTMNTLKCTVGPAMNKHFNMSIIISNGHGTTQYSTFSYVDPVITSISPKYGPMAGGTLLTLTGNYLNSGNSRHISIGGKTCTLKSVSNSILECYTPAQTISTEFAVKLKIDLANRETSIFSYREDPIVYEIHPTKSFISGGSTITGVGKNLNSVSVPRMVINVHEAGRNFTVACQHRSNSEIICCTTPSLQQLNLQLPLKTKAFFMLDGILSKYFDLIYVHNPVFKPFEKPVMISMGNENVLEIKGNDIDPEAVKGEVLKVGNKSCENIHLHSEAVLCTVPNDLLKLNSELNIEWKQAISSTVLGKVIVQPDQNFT

B1: anti-Met scFv-S1 (scFv)
scFv: ELQMTQSPSLLSASTGDRVTISCRASQSISSYLNWYQQKPGKAPKLLIYTRSSLQSGVPSRFSGSGSGTDFTLTISSLQPEDFATYYCQQSYSTPHTFGQGTKLEIKGGSSRSSSSGGGGSGGGGEVQLVESGGGVVQPGRSLRLSCAASGFTFSSYAMHWVRQAPGKGLEWVAVIWYDGSNRYYADSVKGRFTISRDNSKNTLYLQMNSLRAEDTAVYYCASQATEGLIWGQGTLVTVSP
notes: also called scFv Si; S1 phage
binding: binds

— US20090324603A1 (VAN ANDEL RESEARCH INSTITUTE, published 2009)
